# The other results are listed elsewhere or left out.
# B1: PX9961K-bvu-480-28-480 (Bacteroides vulgatus) (protein)
# chain: NKIPTTMAFRTVTDVDNAVNGLYDLMSGSGYYGAAMFAYGDMKGDDMQSSEESGVCNTCYMFNHRPNSLNAGSLWGRPFYILREAWNILNAIAEGKIESGDEKKLNALKGETMAVIALCQFDLTRCFGYPYTKDKGASLGAPLIDHLVGTYENPPRSTVAQAYDFIIETLEEAVTLMSEEKNNGRMNKYAARALLARIYLYHDDNRKAFDLADQLIKDADTSGSYALYPHEKYVAAWSVEAKFGSESFFEIANSVDDTPGRDSWGYLLNWYGYQKGFVTQKYAEQMLADPGDVRGHLLEENKYAGKTVWWLYKLRGTDLKTAPLECNNVVLRLSEVYLIAAEAGCKLGGDAAVQGLGYLNEIVKRGNPDNEVTMADYTLDRVLDERSKELVGEGHRFFDLLRNGKTIVRKGGYHLPSVDEEVDWDFYKCVLPIPEDQFIFSPEMEQNPGYPKN
# Experiments:
# Assay in all cases: glycan array binding signal (z-score within array); higher = stronger binding
# Details in all cases: glycan notation: IUPAC condensed, linker removed
# Gal3S(b1-4)Glc = biological target: Gal3S(b1-4)Glc
# Procedure, shortened: (§1)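 Negative Z-scores can be read as non-binding. The Z-score is calculated within each array and then averaged across arrays of one protein sequence at different concentrations or buffers and across linkers. Arrays, 3228 in all, were curated from the Consortium for Functional Glycomics database and kept only where the protein sequence was available.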
# Gal3S(b1-4)Glc6S = biological target: Gal3S(b1-4)Glc6S
# Procedure, shortened: as §1
# Gal3S(b1-4)GlcNAc = biological target: Gal3S(b1-4)GlcNAc
# Procedure, shortened: as §1
# [1] = biological target: Gal3S(b1-4)[Fuc(a1-3)]Glc6S
# Procedure, shortened: as §1
# [2] = biological target: Gal3S(b1-4)[Fuc(a1-3)]GlcNAc
# Procedure, shortened: as §1
# [3] = biological target: Gal3S(b1-4)[Fuc(a1-3)]GlcNAc6S
# Procedure, shortened: as §1
# Gal3S4S(b1-4)GlcNAc = biological target: Gal3S4S(b1-4)GlcNAc
# Procedure, shortened: as §1
# Gal3S6S(b1-4)GlcNAc = biological target: Gal3S6S(b1-4)GlcNAc
# Procedure, shortened: as §1
# Gal3S6S(b1-4)GlcNAc6S = biological target: Gal3S6S(b1-4)GlcNAc6S
# Procedure, shortened: as §1
# Gal4S(b1-4)GlcNAc = biological target: Gal4S(b1-4)GlcNAc
# Procedure, shortened: as §1
# Gal4S6S(b1-4)GlcNAc = biological target: Gal4S6S(b1-4)GlcNAc
# Procedure, shortened: as §1
# Gal6P(b1-4)GlcNAc = biological target: Gal6P(b1-4)GlcNAc
# Procedure, shortened: as §1
# Gal6S(b1-3)GlcNAc = biological target: Gal6S(b1-3)GlcNAc
# Procedure, shortened: as §1
# Gal6S(b1-3)GlcNAc6S = biological target: Gal6S(b1-3)GlcNAc6S
# Procedure, shortened: as §1
# Gal6S(b1-4)Glc = biological target: Gal6S(b1-4)Glc
# Procedure, shortened: as §1
# Gal6S(b1-4)Glc6S = biological target: Gal6S(b1-4)Glc6S
# Procedure, shortened: as §1
# Gal6S(b1-4)GlcNAc = biological target: Gal6S(b1-4)GlcNAc
# Procedure, shortened: as §1
# Gal6S(b1-4)GlcNAc6S = biological target: Gal6S(b1-4)GlcNAc6S
# Procedure, shortened: as §1
# GalNAc(a1-3)Gal = biological target: GalNAc(a1-3)Gal
# Procedure, shortened: as §1
# GalNAc(a1-3)GalNAc = biological target: GalNAc(a1-3)GalNAc
# Procedure, shortened: as §1
# [4] = biological target: GalNAc(a1-3)GalNAc(b1-3)Gal(a1-4)Gal(b1-4)Glc
# Procedure, shortened: as §1
# [5] = biological target: GalNAc(a1-3)GalNAc(b1-3)Gal(a1-4)Gal(b1-4)GlcNAc
# Procedure, shortened: as §1
# GalNAc(b1-3)Gal = biological target: GalNAc(b1-3)Gal
# Procedure, shortened: as §1
# [6] = biological target: GalNAc(b1-3)Gal(a1-4)Gal(b1-4)GlcNAc
# Procedure, shortened: as §1
# [7] = biological target: GalNAc(b1-3)Gal(a1-4)Gal(b1-4)GlcNAc(b1-3)Gal(b1-4)Glc
# Procedure, shortened: as §1
# [8] = biological target: GalNAc(b1-3)Gal(a1-6)Gal(b1-4)Glc
# Procedure, shortened: as §1
# GalNAc(b1-3)GalNAc = biological target: GalNAc(b1-3)GalNAc
# Procedure, shortened: as §1
# GalNAc(b1-3)GlcNAc = biological target: GalNAc(b1-3)GlcNAc
# Procedure, shortened: as §1
# GalNAc(b1-4)Gal(b1-4)Glc = biological target: GalNAc(b1-4)Gal(b1-4)Glc
# Procedure, shortened: as §1
# GalNAc(b1-4)GlcNAc = biological target: GalNAc(b1-4)GlcNAc
# Procedure, shortened: as §1
# [9] = biological target: GalNAc(b1-4)GlcNAc(b1-2)Man
# Procedure, shortened: as §1
# [10] = biological target: GalNAc(b1-4)GlcNAc(b1-2)Man(a1-3)[GalNAc(b1-4)GlcNAc(b1-2)Man(a1-6)]Man(b1-4)GlcNAc(b1-4)GlcNAc
# Procedure, shortened: as §1
# [11] = biological target: GalNAc(b1-4)GlcNAc(b1-3)GalNAc(b1-4)GlcNAc
# Procedure, shortened: as §1
# GalNAc(b1-4)GlcNAc6S = biological target: GalNAc(b1-4)GlcNAc6S
# Procedure, shortened: as §1
# GalNAc(b1-6)GalNAc = biological target: GalNAc(b1-6)GalNAc
# Procedure, shortened: as §1
# GalNAc3S(b1-4)GlcNAc = biological target: GalNAc3S(b1-4)GlcNAc
# Procedure, shortened: as §1
# GalNAc3S(b1-4)GlcNAc3S = biological target: GalNAc3S(b1-4)GlcNAc3S
# Procedure, shortened: as §1
# [12] = biological target: GalNAc3S(b1-4)[Fuc(a1-3)]GlcNAc
# Procedure, shortened: as §1
# GalNAc4S6S(b1-4)GlcNAc = biological target: GalNAc4S6S(b1-4)GlcNAc
# Procedure, shortened: as §1
# GalNAc6S(b1-4)GlcNAc = biological target: GalNAc6S(b1-4)GlcNAc
# Procedure, shortened: as §1
# Glc(a1-4)Glc = biological target: Glc(a1-4)Glc
# Procedure, shortened: as §1
# [13] = biological target: Glc(a1-4)Glc(a1-4)Glc(a1-4)Glc
# Procedure, shortened: as §1
# Glc(a1-6)Glc(a1-6)Glc = biological target: Glc(a1-6)Glc(a1-6)Glc
# Procedure, shortened: as §1
# [14] = biological target: Glc(a1-6)Glc(a1-6)Glc(a1-6)Glc
# Procedure, shortened: as §1
# Glc(b1-4)Glc = biological target: Glc(b1-4)Glc
# Procedure, shortened: as §1
binder,measurement,setting,value
B1,glycan array binding signal (z-score),Gal3S(b1-4)Glc,0.787
same,glycan array binding signal (z-score),Gal3S(b1-4)Glc6S,0.273
same,glycan array binding signal (z-score),Gal3S(b1-4)GlcNAc,0.927
same,glycan array binding signal (z-score),[1],-0.512
same,glycan array binding signal (z-score),[2],0.835
same,glycan array binding signal (z-score),[3],0.812
same,glycan array binding signal (z-score),Gal3S4S(b1-4)GlcNAc,0.316
same,glycan array binding signal (z-score),Gal3S6S(b1-4)GlcNAc,0.512
same,glycan array binding signal (z-score),Gal3S6S(b1-4)GlcNAc6S,1.05
same,glycan array binding signal (z-score),Gal4S(b1-4)GlcNAc,0.389
same,glycan array binding signal (z-score),Gal4S6S(b1-4)GlcNAc,-0.447
same,glycan array binding signal (z-score),Gal6P(b1-4)GlcNAc,0.088
same,glycan array binding signal (z-score),Gal6S(b1-3)GlcNAc,0.36
same,glycan array binding signal (z-score),Gal6S(b1-3)GlcNAc6S,1.43
same,glycan array binding signal (z-score),Gal6S(b1-4)Glc,0.467
same,glycan array binding signal (z-score),Gal6S(b1-4)Glc6S,-0.128
same,glycan array binding signal (z-score),Gal6S(b1-4)GlcNAc,-0.106
same,glycan array binding signal (z-score),Gal6S(b1-4)GlcNAc6S,-0.201
same,glycan array binding signal (z-score),GalNAc(a1-3)Gal,0.087
same,glycan array binding signal (z-score),GalNAc(a1-3)GalNAc,-0.228
same,glycan array binding signal (z-score),[4],-0.347
same,glycan array binding signal (z-score),[5],0.347
same,glycan array binding signal (z-score),GalNAc(b1-3)Gal,-0.227
same,glycan array binding signal (z-score),[6],-0.475
same,glycan array binding signal (z-score),[7],-0.343
same,glycan array binding signal (z-score),[8],0.677
same,glycan array binding signal (z-score),GalNAc(b1-3)GalNAc,0.373
same,glycan array binding signal (z-score),GalNAc(b1-3)GlcNAc,0.085
same,glycan array binding signal (z-score),GalNAc(b1-4)Gal(b1-4)Glc,0.362
same,glycan array binding signal (z-score),GalNAc(b1-4)GlcNAc,0.72
same,glycan array binding signal (z-score),[9],0.581
same,glycan array binding signal (z-score),[10],-0.582
same,glycan array binding signal (z-score),[11],-0.336
same,glycan array binding signal (z-score),GalNAc(b1-4)GlcNAc6S,-0.639
same,glycan array binding signal (z-score),GalNAc(b1-6)GalNAc,-0.225
same,glycan array binding signal (z-score),GalNAc3S(b1-4)GlcNAc,-0.27
same,glycan array binding signal (z-score),GalNAc3S(b1-4)GlcNAc3S,0.498
same,glycan array binding signal (z-score),[12],-0.094
same,glycan array binding signal (z-score),GalNAc4S6S(b1-4)GlcNAc,-0.408
same,glycan array binding signal (z-score),GalNAc6S(b1-4)GlcNAc,-0.802
same,glycan array binding signal (z-score),Glc(a1-4)Glc,-0.283
same,glycan array binding signal (z-score),[13],-0.305
same,glycan array binding signal (z-score),Glc(a1-6)Glc(a1-6)Glc,-0.638
same,glycan array binding signal (z-score),[14],-0.777
same,glycan array binding signal (z-score),Glc(b1-4)Glc,-0.946

# 2 entries from above, tab-delimited:
binder	measurement	setting	value
B1	glycan array binding signal (z-score)	Gal3S6S(b1-4)GlcNAc	0.512
same	glycan array binding signal (z-score)	GalNAc3S(b1-4)GlcNAc3S	0.498

# Source: the supplement of paper PMC8728848
